# Experimental data taken from the supplement of paper PMC11348887.
# Counter-ions that a name gives are not always drawn. Some of the results follow. Most entries show no effect beyond the scatter of the controls.
# Tested on: hPSC-derived cortical neurons (WA09)
# Assay: KCl-induced FOS+/EGR-1+ double-positive nuclei fraction z-score (KCl minus unstimulated); higher = stronger activity-induced IEG response
# Settings: 5 µM; treatment: days 7-14 after plating, readout day 21
row,Compound,KCl-induced FOS+/EGR-1+ double-positive nuclei fraction z-score
1,Nc1cc(C(Cl)=C(Cl)Cl)c(S(N)(=O)=O)cc1S(N)(=O)=O [Clorsulon],-0.395
2,Cc1cnc(Nc2ccc(OCCN3CCCC3)cc2)nc1Nc1cccc(S(=O)(=O)NC(C)(C)C)c1,-3.4
3,Cc1[nH]c(/C=C2\C(=O)Nc3ccccc32)c(C)c1CCC(=O)O [TSU-68 (SU6668_ Orantinib)],0.836
4,CN(C)CCOC(C)(c1ccccc1)c1ccccn1 (configuration not stated) [Doxylamine Succinate],3.17
5,COc1ccccc1OCCNCC(O)COc1cccc2[nH]c3ccccc3c12 (configuration not stated) [Carvedilol],3.71
6,CN1CCC(OC(c2ccccc2)c2ccccc2)CC1 [Diphenylpyraline HCl],1.05
7,CC1=C(C(=O)OC(C)C)C(c2cccc([N+](=O)[O-])c2)C(C(=O)OC2CN(C(c3ccccc3)c3ccccc3)C2)=C(N)N1 (configuration not stated) [Azelnidipine],-0.139
8,CCCCNc1cc(C(=O)O)cc(S(N)(=O)=O)c1Oc1ccccc1 [Bumetanide],1.8
9,C[C@H]1c2cccc(O)c2C(=O)C2=C(O)[C@]3(O)C(=O)C(C(N)=O)=C(O)[C@@H](N(C)C)[C@@H]3[C@@H](O)[C@@H]21 [Doxycycline Hyclate],-1.14
10,CC(CN1c2ccccc2Sc2ccccc21)N(C)C (configuration not stated) [Promethazine HCl],-0.536
11,COc1ccc(CCNCc2ccc(OCc3ccc(Cl)nc3)c(OC)c2)cc1OC,-0.503
12,CCC/N=C1\S/C(=C\c2ccc(OC[C@H](O)CO)c(Cl)c2)C(=O)N1c1ccccc1C [Ponesimod],0.771
13,Nc1nc(N)c2nc(-c3cccc(O)c3)cnc2n1,-0.169
14,CN1CCN2c3ccccc3Cc3ccccc3C2C1 (configuration not stated) [Mianserin HCl],0.635
15,CCC(NC(C)C)C(O)c1ccc(O)c(O)c1 (configuration not stated) [Isoetharine Mesylate],0.735
16,CCC[C@H](NC(=O)/C(C#N)=C/c1cccc(Br)n1)c1ccccc1 [Degrasyn (WP1130)],-0.322
17,CCC[S+]([O-])c1ccc2[nH]c(NC(=O)OC)nc2c1 (configuration not stated) [Albendazole Oxide],2.6
18,COc1ccc(-c2ccc3cc(C(=O)O)ccc3c2)cc1C12CC3CC(CC(C3)C1)C2 [Adapalene],1.21
19,Cc1ccc(C(=O)N(CCCN)[C@@H](c2oc3cc(Cl)ccc3c(=O)c2Cc2ccccc2)C(C)C)cc1,-0.683
20,COc1cc(C=O)ccc1O [Vanillin],0.03
21,Oc1cc2c(cc1O)[C@@H]1c3ccc(O)c(O)c3OC[C@]1(O)C2 [Hematoxylin],0.267
22,CC(C)/N=c1\cc2n(-c3ccc(Cl)cc3)c3ccccc3nc-2cc1Nc1ccc(Cl)cc1 [Clofazimine],-0.592

# Fetched by compound from the entries so far:
row,Compound,KCl-induced FOS+/EGR-1+ double-positive nuclei fraction z-score
10,CC(CN1c2ccccc2Sc2ccccc21)N(C)C (configuration not stated) [Promethazine HCl],-0.536
7,CC1=C(C(=O)OC(C)C)C(c2cccc([N+](=O)[O-])c2)C(C(=O)OC2CN(C(c3ccccc3)c3ccccc3)C2)=C(N)N1 (configuration not stated) [Azelnidipine],-0.139
